From patent US12454550B2, “Compositions and methods for bioorthogonal surface coating” (Rutgers, The State University of New Jersey, priority 2021, dated 2025)
≈ marks a conversion by molar mass, not a printed value.

Test system: S. aureus
Assay: Minimum Inhibitory Concentration (MIC) assay
Assay type: cell-based
Conditions: Staphylococcus aureus; in solution, 37° C., 18 to 24 h, n=3
Procedure: A glycerol stock of S. aureus was struck on a tryptic soy agar plate and incubated overnight at 37° C. Single colonies were then picked and diluted into tryptic soy broth (TSB) and left to grow overnight. Next, the culture was diluted approximately 40-fold into fresh TSB and grown to mid-log phase (OD600=0.4 to 0.8). 5 mg/mL stock solutions of Vancomycin-TCO and vancomycin in DMSO were serially diluted two-fold with TBS across the wells of a non-treated 96-well plate, with concentrations ranging from 0.0625 to 128 μg/mL. The mid-log phase cultures were diluted to a final concentration of 5×10^5 colony forming units (CFU)/mL in TSB then 50 μL was added to each antimicrobial-containing well, giving a final antimicrobial concentration range of 0.031 to 64 μg/mL. All the plates were covered and incubated at 37° C. for 18 to 24 h. The MIC was defined as the lowest compound concentration at which no bacterial growth was visible (n=3).

## CN[C@H](CC(C)C)C(=O)N[C@H]1C(=O)N[C@@H](CC(N)=O)C(=O)N[C@H]2C(=O)N[C@H]3C(=O)N[C@H](C(=O)N[C@H](C(=O)O)c4cc(O)cc(O)c4-c4cc3ccc4O)[C@H](O)c3ccc(c(Cl)c3)Oc3cc2cc(c3O[C@@H]2O[C@H](CO)[C@@H](O)[C@H](O)[C@H]2O[C@H]2C[C@](C)(N)[C@H](O)[C@H](C)O2)Oc2ccc(cc2Cl)[C@H]1O [Vancomycin, reference compound]
  MIC: 1 µg/mL (≈ 0.69 µM)
